Experimental data reported in the supplement of paper PMC12067093, “Discovery and optimisation of a covalent ligand for TRIM25 and its application to targeted protein ubiquitination” (Chemical Science, 2025).
The list shows a part of the results.

Protein sequences, listed by entry. Tags and fused reporters are not part of them. Lines headed by an entry give the natural chain unless they say otherwise; changes in a name come on top.
UniProt P50213: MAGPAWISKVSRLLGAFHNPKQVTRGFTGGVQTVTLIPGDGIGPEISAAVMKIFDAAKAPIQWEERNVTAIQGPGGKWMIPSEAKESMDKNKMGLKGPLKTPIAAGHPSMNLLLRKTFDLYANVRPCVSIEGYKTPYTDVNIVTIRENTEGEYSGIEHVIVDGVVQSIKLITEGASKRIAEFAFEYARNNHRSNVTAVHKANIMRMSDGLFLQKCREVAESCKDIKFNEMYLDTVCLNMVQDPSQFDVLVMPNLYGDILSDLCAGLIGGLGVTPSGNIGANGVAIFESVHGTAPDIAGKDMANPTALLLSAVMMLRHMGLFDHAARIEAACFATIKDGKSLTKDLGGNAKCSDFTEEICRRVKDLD
UniProt Q9NSE4: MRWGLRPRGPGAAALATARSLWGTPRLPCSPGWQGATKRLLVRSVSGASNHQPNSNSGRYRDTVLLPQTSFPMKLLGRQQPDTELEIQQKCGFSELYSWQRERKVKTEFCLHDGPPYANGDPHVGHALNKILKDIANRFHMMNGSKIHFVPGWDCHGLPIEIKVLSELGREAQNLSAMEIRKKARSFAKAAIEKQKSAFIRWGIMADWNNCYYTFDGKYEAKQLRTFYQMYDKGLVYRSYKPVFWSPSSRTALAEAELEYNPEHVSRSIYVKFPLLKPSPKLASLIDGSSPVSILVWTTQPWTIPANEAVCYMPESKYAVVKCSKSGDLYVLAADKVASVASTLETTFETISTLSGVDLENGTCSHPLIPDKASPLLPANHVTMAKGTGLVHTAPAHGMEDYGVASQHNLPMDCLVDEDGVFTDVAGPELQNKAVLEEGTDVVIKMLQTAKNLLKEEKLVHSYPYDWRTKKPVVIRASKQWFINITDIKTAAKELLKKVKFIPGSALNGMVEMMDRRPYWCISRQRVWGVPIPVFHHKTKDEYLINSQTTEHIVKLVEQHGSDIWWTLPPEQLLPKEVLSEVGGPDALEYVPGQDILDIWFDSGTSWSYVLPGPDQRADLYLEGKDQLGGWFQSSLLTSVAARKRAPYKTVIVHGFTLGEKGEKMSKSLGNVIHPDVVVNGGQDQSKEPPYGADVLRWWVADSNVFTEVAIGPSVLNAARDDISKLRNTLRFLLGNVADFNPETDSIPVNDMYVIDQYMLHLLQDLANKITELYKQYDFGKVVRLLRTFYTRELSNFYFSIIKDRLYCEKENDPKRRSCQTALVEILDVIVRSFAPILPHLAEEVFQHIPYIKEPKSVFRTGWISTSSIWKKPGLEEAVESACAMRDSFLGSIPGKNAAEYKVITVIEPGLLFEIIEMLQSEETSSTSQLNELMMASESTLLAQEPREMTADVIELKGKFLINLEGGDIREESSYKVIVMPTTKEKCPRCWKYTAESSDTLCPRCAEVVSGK
UniProt Q96F46, whole entry, looked up: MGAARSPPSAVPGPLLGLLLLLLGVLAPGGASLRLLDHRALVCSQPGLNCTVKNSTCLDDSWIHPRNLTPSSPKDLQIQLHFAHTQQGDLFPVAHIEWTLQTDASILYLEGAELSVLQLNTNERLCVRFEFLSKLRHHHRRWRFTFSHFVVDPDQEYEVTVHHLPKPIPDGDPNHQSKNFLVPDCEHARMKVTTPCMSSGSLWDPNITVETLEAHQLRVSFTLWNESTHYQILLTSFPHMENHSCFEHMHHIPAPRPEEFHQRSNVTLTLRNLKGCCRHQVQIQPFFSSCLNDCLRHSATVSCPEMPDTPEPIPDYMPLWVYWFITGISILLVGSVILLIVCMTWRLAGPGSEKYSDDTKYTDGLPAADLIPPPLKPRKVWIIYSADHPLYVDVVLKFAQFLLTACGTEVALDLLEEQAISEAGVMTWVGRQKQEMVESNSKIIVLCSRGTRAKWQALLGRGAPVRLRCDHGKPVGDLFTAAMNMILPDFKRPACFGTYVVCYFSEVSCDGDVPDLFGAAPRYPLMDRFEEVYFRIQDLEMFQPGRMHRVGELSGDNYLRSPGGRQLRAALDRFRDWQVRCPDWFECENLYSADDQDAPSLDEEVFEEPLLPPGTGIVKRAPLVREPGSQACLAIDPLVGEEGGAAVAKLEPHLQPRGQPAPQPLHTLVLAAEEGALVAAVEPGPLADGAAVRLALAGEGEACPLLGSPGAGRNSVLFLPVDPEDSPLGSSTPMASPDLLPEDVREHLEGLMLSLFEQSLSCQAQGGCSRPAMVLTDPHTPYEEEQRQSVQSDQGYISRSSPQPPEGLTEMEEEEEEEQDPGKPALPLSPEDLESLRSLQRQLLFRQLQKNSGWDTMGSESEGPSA
UniProt P41252: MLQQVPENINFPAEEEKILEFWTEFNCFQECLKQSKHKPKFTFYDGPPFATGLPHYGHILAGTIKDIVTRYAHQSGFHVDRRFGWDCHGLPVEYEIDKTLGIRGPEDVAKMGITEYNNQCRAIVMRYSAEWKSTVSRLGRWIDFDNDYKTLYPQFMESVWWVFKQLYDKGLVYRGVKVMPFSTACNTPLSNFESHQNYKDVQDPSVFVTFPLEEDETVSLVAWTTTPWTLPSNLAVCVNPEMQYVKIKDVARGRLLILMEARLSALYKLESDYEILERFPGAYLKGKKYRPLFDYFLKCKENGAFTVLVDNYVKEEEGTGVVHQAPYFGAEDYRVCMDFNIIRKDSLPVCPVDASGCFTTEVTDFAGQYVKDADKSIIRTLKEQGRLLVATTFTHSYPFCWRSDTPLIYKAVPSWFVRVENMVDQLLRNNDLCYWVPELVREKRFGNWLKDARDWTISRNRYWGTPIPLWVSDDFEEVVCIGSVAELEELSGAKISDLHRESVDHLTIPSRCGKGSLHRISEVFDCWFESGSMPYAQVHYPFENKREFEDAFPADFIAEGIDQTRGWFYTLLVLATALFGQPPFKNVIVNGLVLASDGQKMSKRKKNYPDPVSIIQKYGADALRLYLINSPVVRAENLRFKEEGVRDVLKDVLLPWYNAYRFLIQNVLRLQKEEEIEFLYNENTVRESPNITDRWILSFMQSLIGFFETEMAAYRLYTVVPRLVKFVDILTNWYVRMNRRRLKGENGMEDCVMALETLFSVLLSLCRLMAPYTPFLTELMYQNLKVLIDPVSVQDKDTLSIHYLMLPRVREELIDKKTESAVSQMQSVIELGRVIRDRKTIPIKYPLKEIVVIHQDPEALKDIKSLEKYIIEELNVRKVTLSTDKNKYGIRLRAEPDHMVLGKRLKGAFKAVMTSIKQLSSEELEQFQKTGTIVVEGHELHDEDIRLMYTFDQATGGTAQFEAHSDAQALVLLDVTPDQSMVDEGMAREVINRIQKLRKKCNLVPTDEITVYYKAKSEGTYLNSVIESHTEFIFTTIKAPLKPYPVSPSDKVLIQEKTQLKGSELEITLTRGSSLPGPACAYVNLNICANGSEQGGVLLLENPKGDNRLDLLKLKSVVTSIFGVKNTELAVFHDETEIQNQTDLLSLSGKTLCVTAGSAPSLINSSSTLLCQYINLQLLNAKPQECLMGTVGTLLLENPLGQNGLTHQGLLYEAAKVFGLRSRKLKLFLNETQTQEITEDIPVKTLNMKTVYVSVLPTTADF
UniProt Q16666: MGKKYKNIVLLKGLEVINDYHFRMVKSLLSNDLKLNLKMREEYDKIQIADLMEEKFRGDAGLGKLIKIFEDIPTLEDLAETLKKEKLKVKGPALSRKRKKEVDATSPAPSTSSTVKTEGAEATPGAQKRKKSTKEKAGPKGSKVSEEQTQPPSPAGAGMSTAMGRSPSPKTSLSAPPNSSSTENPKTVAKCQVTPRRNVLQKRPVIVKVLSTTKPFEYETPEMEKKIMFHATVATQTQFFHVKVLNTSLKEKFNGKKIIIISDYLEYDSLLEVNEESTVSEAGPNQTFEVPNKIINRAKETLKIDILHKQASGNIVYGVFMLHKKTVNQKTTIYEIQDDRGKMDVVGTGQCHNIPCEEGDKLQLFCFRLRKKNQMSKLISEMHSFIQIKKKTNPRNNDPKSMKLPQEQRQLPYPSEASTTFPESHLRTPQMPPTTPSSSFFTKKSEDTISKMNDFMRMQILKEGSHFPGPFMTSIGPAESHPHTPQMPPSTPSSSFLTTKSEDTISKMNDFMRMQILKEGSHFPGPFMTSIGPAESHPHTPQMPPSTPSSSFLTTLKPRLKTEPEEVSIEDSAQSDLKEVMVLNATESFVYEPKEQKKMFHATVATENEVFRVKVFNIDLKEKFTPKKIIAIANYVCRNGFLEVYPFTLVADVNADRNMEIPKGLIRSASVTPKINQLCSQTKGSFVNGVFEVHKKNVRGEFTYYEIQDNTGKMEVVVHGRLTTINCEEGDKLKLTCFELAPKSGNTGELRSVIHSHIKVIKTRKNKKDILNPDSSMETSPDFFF
UniProt Q5T013: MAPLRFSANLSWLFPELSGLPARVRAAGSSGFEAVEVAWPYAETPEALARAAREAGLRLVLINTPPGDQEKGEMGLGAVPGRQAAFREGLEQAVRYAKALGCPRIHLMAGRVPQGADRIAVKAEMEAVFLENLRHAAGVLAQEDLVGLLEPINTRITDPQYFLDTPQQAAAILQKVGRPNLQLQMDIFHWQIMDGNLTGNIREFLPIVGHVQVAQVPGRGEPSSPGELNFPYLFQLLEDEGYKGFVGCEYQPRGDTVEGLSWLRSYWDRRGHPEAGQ
UniProt Q9H0C8: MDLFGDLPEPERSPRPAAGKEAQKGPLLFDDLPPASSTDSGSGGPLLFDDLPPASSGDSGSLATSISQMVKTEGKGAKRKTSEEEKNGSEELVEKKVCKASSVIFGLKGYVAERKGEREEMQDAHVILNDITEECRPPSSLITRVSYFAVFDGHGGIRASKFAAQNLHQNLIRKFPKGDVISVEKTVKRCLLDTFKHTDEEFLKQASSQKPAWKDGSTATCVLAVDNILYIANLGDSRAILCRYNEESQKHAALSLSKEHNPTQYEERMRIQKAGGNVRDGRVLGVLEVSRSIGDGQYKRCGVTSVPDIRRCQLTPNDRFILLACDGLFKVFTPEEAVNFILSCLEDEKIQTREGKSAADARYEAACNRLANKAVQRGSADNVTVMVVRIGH
UniProt Q9Y6M1: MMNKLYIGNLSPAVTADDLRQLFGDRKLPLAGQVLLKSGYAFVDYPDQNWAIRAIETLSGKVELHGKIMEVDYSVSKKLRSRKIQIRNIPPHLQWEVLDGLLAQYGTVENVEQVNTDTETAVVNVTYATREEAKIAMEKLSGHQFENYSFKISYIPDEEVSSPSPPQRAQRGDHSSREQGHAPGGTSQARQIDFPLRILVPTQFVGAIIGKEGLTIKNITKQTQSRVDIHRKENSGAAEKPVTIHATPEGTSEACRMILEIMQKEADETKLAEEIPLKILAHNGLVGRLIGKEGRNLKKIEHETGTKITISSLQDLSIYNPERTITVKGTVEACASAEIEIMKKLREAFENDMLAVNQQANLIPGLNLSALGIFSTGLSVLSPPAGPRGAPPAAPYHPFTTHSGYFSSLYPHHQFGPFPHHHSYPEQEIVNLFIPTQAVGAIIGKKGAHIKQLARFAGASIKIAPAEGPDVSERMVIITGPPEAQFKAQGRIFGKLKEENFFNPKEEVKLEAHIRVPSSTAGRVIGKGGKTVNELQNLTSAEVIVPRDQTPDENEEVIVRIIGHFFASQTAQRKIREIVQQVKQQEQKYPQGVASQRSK
UniProt Q9Y6K9, whole entry, looked up: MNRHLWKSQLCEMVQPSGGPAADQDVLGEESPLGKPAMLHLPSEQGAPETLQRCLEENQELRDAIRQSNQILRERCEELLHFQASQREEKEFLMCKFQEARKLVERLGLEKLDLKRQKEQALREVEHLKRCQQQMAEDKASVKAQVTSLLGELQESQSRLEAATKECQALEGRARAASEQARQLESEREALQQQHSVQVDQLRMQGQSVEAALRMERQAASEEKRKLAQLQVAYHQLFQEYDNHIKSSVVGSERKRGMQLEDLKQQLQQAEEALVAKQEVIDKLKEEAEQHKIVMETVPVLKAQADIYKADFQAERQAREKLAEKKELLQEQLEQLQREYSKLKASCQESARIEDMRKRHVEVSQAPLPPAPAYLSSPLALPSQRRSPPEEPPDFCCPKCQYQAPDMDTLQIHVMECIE
UniProt P29218: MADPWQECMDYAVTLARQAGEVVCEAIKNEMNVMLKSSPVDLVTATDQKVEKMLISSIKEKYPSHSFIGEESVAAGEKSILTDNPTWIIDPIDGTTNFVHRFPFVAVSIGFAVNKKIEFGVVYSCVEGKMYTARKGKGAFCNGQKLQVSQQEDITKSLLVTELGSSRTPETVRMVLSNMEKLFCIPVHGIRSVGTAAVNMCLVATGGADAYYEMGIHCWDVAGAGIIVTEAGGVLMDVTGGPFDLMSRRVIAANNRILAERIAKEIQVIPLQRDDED
UniProt O14732: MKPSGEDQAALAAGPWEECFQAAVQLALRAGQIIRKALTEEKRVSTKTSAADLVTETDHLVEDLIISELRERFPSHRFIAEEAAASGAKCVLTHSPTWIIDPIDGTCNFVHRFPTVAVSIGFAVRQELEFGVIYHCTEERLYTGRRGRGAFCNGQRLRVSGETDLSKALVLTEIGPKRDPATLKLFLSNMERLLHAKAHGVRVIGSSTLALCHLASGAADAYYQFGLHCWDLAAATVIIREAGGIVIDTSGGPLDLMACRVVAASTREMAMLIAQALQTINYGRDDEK

Compound: Cc1cc(ccc1-c1ccccc1)C(=O)N1CCCN(CC1)C(=O)CCl [compound 10]
Experiment: probe-labelled cysteine peptide fold change vs DMSO (competition) (log2 fold change); higher = less target engagement (more negative = stronger competition)
Settings: THP-1, incubation time: 4 h
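Also: competitive profiling in live THP-1 cells: cysteine peptides tagged with an iodoacetamide desthiobiotin (IA-DTB) probe, intensity after compound treatment relative to DMSO-treated cells.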

| Target | probe-labelled cysteine peptide fold change (10 µM) | probe-labelled cysteine peptide fold change (50 µM) |
| --- | --- | --- |
| HYAL3_O43820_361_CHGHGR (UniProt O43820) | 0.052 | -0.0062 |
| IGF2R_P11717_2113_RFDIDSCTYYFSWDSR (UniProt P11717) | 0.347 | 0.00493 |
| IDH3A_P50213_222_EVAESCK (UniProt P50213) | 0.0481 | 0.136 |
| IARS2_Q9NSE4_819_RSCQTALVEILDVIVR (UniProt Q9NSE4) | -0.0391 | 0.0402 |
| IMPDH2_P12268_246_QLLCGAAIGTHEDDKYR (UniProt P12268) | -0.388 | -0.865 |
| IGFBP4_P22692_249_GELDCHQLADSFRE (UniProt P22692) | -0.63 | -0.381 |
| INO80_Q9ULG1_1001+1011_CLLTELPSFLCVASPR (UniProt Q9ULG1) | -0.186 | -0.183 |
| IL17RA_Q96F46-2_303_HSATVSCPEMPDTPEPIPGPGSEK (UniProt Q96F46) | -0.0577 | -0.0968 |
| IGF2R_P11717_1783_TSECDFVFEWETPVVCPDEVR (UniProt P11717) | -0.691 | -0.178 |
| IL1RAP_Q9NPH3_332_SYVCHAR (UniProt Q9NPH3) | -0.0813 | -0.034 |
| IDI1_Q13907_39_NCHLNENIEK (UniProt Q13907) | -0.0399 | -0.178 |
| HUWE1_Q7Z6Z7_3372_ACSPCSSQSSSSGICTDFWDLLVK (UniProt Q7Z6Z7) | -0.0662 | -0.703 |
| INPP5A_Q14642_381_VVTYDHIGPNVCMGDHKPVFLAFR (UniProt Q14642) | -0.257 | -0.454 |
| IMPAD1_Q9NX62_302_KWDICAGNAILK (UniProt Q9NX62) | -0.223 | 0.271 |
| IARS_P41252_185_VMPFSTACNTPLSNFESHQNYK (UniProt P41252) | 0.0569 | 0.0401 |
| HUWE1_Q7Z6Z7_183_ENGFGLAECCR (UniProt Q7Z6Z7) | -0.226 | -0.485 |
| IARS_P41252_120_MGITEYNNQCR (UniProt P41252) | 0.2 | -0.0453 |
| HUWE1_Q7Z6Z7_3385_ACSPCSSQSSSSGICTDFWDLLVK (UniProt Q7Z6Z7) | 0.283 | -0.127 |
| IGF2R_P11717_1856_DGGVCLLSGTK (UniProt P11717) | -0.0968 | -0.169 |
| INO80_Q9ULG1_1026_VTAVPLDSYCNDR (UniProt Q9ULG1) | -0.0599 | 0.202 |
| IFI16_Q16666_191_CQVTPR (UniProt Q16666) | -0.111 | -0.291 |
| HUWE1_Q7Z6Z7_349_LSSIIDCTGTASYHGFLPVLVR (UniProt Q7Z6Z7) | -0.208 | 0.0399 |
| HYI_Q5T013_102_ALGCPR (UniProt Q5T013) | -0.118 | -0.167 |
| IGF2R_P11717_1598_DGSPCPSK (UniProt P11717) | -0.127 | -0.213 |
| ING2_Q9H160_26_LLTCYVQDYLECVESLPHDMQR (UniProt Q9H160) | -0.424 | -0.0276 |

In another format: entries from further up.
Target | probe-labelled cysteine peptide fold change (10 µM) | probe-labelled cysteine peptide fold change (50 µM)
INO80_Q9ULG1_1026_VTAVPLDSYCNDR (UniProt Q9ULG1) | -0.0599 | 0.202
IFI16_Q16666_191_CQVTPR (UniProt Q16666) | -0.111 | -0.291
HUWE1_Q7Z6Z7_349_LSSIIDCTGTASYHGFLPVLVR (UniProt Q7Z6Z7) | -0.208 | 0.0399
HYI_Q5T013_102_ALGCPR (UniProt Q5T013) | -0.118 | -0.167

(list continues)

| Target | probe-labelled cysteine peptide fold change (10 µM) | probe-labelled cysteine peptide fold change (50 µM) |
| --- | --- | --- |
| INPP5D_Q92835_506_ISHICTDNVK (UniProt Q92835) | 0.0703 | 0.132 |
| ILKAP_Q9H0C8_301_CGVTSVPDIRR (UniProt Q9H0C8) | 0.0304 | -0.246 |
| IFIT3_O14879_73_HLDGNNEAALECLR (UniProt O14879) | -0.0243 | -0.297 |
| IMPDH2_P12268_173_EEEHDCFLEEIMTK (UniProt P12268) | -0.0951 | 0.357 |
| IGF2R_P11717_572_GNIQLSYSDGDDCGHGKK (UniProt P11717) | -0.185 | -0.387 |
| IDH3A_P50213_359_CSDFTEEICR (UniProt P50213) | -0.0425 | 0.335 |
| IMPDH2_P12268_173_DIDFLKEEEHDCFLEEIMTK (UniProt P12268) | -0.163 | -0.307 |
| INPP5D_Q92835_1088_SFTCSSSAEGR (UniProt Q92835) | -0.37 | -0.603 |
| IGF2BP2_Q9Y6M1_255_ENSGAAEKPVTIHATPEGTSEACR (UniProt Q9Y6M1) | 0.0817 | -0.335 |
| IGF2R_P11717_2096_TASSVIELTCTK (UniProt P11717) | -0.0404 | -0.124 |
| ILVBL_A1L0T0_315_AAVETLGVPCFLGGMAR (UniProt A1L0T0) | 0.0279 | -0.0462 |
| IKBKB_O14920_716_KSEELVAEAHNLCTLLENAIQDTVR (UniProt O14920) | 0.0153 | -0.00819 |
| IARS2_Q9NSE4_1005_CAEVVSGK (UniProt Q9NSE4) | 0.0246 | -0.434 |
| HUWE1_Q7Z6Z7_3361_ETNCESDRER (UniProt Q7Z6Z7) | -0.165 | -0.258 |
| IGF2R_P11717_149_TLGTPEFVTATECVHYFEWR (UniProt P11717) | 0.00273 | -0.0538 |
| HUWE1_Q7Z6Z7_19_TPTEAPADCR (UniProt Q7Z6Z7) | -0.363 | -0.0262 |
| IFIH1_Q9BYX4_17_YLISCFR (UniProt Q9BYX4) | -0.0884 | -0.0609 |
| ILF3_Q12906_278_RVLECLASGIVMPDGSGIYDPCEK (UniProt Q12906) | 0.173 | -0.227 |
| IDH2_P48735_154_NILGGTVFREPIICK (UniProt P48735) | -0.0771 | 0.00956 |
| IKBKG_Q9Y6K9_76_CEELLHFQASQR (UniProt Q9Y6K9) | 0.143 | 0.372 |
| IDH1_O75874_73_CATITPDEK (UniProt O75874) | -0.251 | -0.0125 |
| ILF3_Q12906_203_CLAALASLR (UniProt Q12906) | -0.0927 | 0.189 |
| IGF2R_P11717_134_VQSSIAFLCGK (UniProt P11717) | -0.186 | -0.697 |
| IGF2R_P11717_475_EDLLCGATDGK (UniProt P11717) | -0.157 | 0.187 |
| INF2_Q27J81_898_ELADYLCEDAQQLSLEDTFSTMK (UniProt Q27J81) | -0.0546 | 0.129 |

| Target | probe-labelled cysteine peptide fold change (10 µM) | probe-labelled cysteine peptide fold change (50 µM) |
| --- | --- | --- |
| IMPA1_P29218_24_QAGEVVCEAIK (UniProt P29218) | 0.188 | 0.181 |
| ILKAP_Q9H0C8_312_CQLTPNDR (UniProt Q9H0C8) | -0.089 | -0.204 |
| IMPA2_O14732_136_QELEFGVIYHCTEER (UniProt O14732) | 0.309 | 0.224 |
| IGF2R_P11717_531_GCPEDAAVCAVDK (UniProt P11717) | -0.0653 | -0.042 |
| IL17RA_Q96F46_632_EPGSQACLAIDPLVGEEGGAAVAK (UniProt Q96F46) | -0.0942 | 0.0011 |
| INO80_Q9ULG1_1049_QCLLNGAPELAADWLNRR (UniProt Q9ULG1) | 0.124 | -0.359 |
| IMPA1_P29218_8_ADPWQECMDYAVTLAR (UniProt P29218) | 0.0287 | -0.0866 |
| INF2_Q27J81_971_KGPGKQEEVCVIDALLADIRK (UniProt Q27J81) | -0.309 | -0.717 |
| INO80E_Q8NBZ0_31_FLIYEHECFQEELRK (UniProt Q8NBZ0) | 0.169 | 0.0871 |
| ILK_Q13418_8_MDDIFTQCR (UniProt Q13418) | -0.0759 | 0.389 |
| HUWE1_Q7Z6Z7_4211_EYVHLVCQMR (UniProt Q7Z6Z7) | -0.0536 | 0.0673 |
| IMPA2_O14732_90_CVLTHSPTWIIDPIDGTCNFVHR (UniProt O14732) | 0.0244 | 0.0597 |
| INPP5D_Q92835_902_APPCSGSSITEIINPNYMGVGPFGPPMPLHVK (UniProt Q92835) | -0.25 | -0.545 |
| ILKAP_Q9H0C8_135_GEREEMQDAHVILNDITEECRPPSSLITR (UniProt Q9H0C8) | -0.223 | 0.091 |
| IGF2R_P11717_572_GNIQLSYSDGDDCGHGK (UniProt P11717) | -0.14 | -0.0311 |
| IGF2BP2_Q9Y6M1_255_PVTIHATPEGTSEACR (UniProt Q9Y6M1) | 0.175 | 0.236 |
| IFIH1_Q9BYX4_138_CMEEELLTIEDR (UniProt Q9BYX4) | 0.00756 | -0.118 |
| IMPA1_P29218_125_KIEFGVVYSCVEGK (UniProt P29218) | -0.0937 | 0.346 |
| ILF3_Q12906_116_GDLDLELVLLCK (UniProt Q12906) | 0.0258 | 0.162 |
| IGF2R_P11717_823_YYINVCRPLNPVPGCNR (UniProt P11717) | -0.136 | -0.194 |
| IKBKG_Q9Y6K9_417_CQYQAPDMDTLQIHVMECIE (UniProt Q9Y6K9) | -0.123 | 0.0335 |
| IARS_P41252_400_LLVATTFTHSYPFCWR (UniProt P41252) | 0.0125 | 0.177 |
| ICAM3_P32942_139_CQVEDGSPR (UniProt P32942) | -0.173 | -0.194 |
